At least one structure is not confirmed: it was looked up by name or label, or the drawing left a doubt.
Assays:
[1] = tested on: CaV1.3 (α1D+β2B) channels in HEK293T cells; experiment: Perforated whole-cell patch clamp of Ba2+ current, forskolin stimulation of CaV1.3 in HEK293T cells; assay type: cell-based
Procedure: In adrenal chromaffin cells and the sinus node cells of the heart, L-type CaV1.3 channels are robustly stimulated by PKA. […] Thus, like CaV1.2, Rad is the missing ingredient. For HEK293T cell experiments involving the forskolin-induced stimulation of CaV1.2 and CaV2.2 currents, perforated whole-cell patch clamp technique was implemented to minimize current run-down and preserve the intracellular milieu. Amphotericin B (Sigma A9528) was initially dissolved in DMSO (20 mg/ml) and used in the pipette solution at a final concentration of 200 μg/ml. The tip of the pipette was filled with amphotericin-free solution (in mM): 80 Cesium Gluconate, 40 CsCI, 10 HEPES, 10 BAPTA, 1 MgCl2, 1 Mg-ATP, pH adjusted to 7.2 with CsOH. The pipette was backfilled with (in mM): 125 CsCI, 10 HEPES, 4 CaCl2, 1 MgCl2, pH-7.2 with CsOH; containing amphotericin, 200 μg/ml. CaCl2 (4 mM) was added to the intracellular patch electrode solution to enable the detection of conversion from perforated to ruptured configuration. […] For experiments with HEK293T cells, in addition to step protocols, we used a ramp protocol with a 200 ms voltage ramp from -60 mV (or -70 mV for CaV1.3) to +60 mV applied every 10 s- to monitor the near-steady-state I-V relationship. […] The voltage steps protocol used in cardiomyocytes studies evaluated […]), which was recalculated in […] to G=G(V) as […]). […]

[2] = tested on: CaV2.2 (α1B+β2B) channels in HEK cells; experiment: Perforated whole-cell patch clamp of Ba2+ current, forskolin stimulation of CaV2.2 in HEK cells; assay type: cell-based, human; details: binding of Rad to β attenuated
Text: N-type Ca^2+ channels (CaV2.2) are widely expressed, play an essential role in neurotransmitter release, and are targets for the development of drugs to relieve chronic pain. The inventors expressed the CaV2.2 α1B subunit with β2B and Rad in HEK cells. […] Attenuating binding of Rad […] prevented the forskolin-induced modulation of CaV2.2 current (FIG. 19F). In the above, with regard to clone construction and cell culture, all mouse N-terminal-GFP-tagged mouse Rad (accession #XM_006531206) constructs in a pEGFP-C1 vector were generated by gene-synthesis (Gene Universal). The human CaV2.2 (pSAD442-1) was a gift from Diane Lipscombe (Addgene plasmid #62574). […] The media was changed 4-6 hours after transfection. The cells were split onto coverslips coated with attachment factor protein (Gibco). Electrophysiological recordings were carried out at room temperature 24-48 hours after transfection. For HEK293T cell experiments involving the forskolin-induced stimulation of CaV1.2 and CaV2.2 currents, perforated whole-cell patch clamp technique was implemented to minimize current run-down and preserve the intracellular milieu. Amphotericin B (Sigma A9528) was initially dissolved in DMSO (20 mg/ml) and used in the pipette solution at a final concentration of 200 μg/ml. […] The voltage steps protocol used in cardiomyocytes studies evaluated […]), which was recalculated in […] to G=G(V) as […]). […]

C=C[C@@]1(C)CC(=O)[C@]2(O)[C@@]3(C)[C@@H](O)CCC(C)(C)[C@@H]3[C@H](O)[C@H](OC(C)=O)[C@@]2(C)O1 [forskolin]
forskolin-induced modulation of CaV1.3 current ([1]; binding of Rad to β attenuated): prevented | impact on Ba2+ current ([1]; cells transfected with only CaV1.3 α1D+β2B (no Rad), superfusion over 1-3 minutes): no impact | forskolin-induced modulation of CaV2.2 current [2]: prevented

From US20220397567A1, “NOVEL APPROACH FOR INCREASING CONTRACTILITY IN PATIENTS WITH SYSTOLIC HEART FAILURE” (THE TRUSTEES OF COLUMBIA UNIVERSITY IN THE CITY OF NEW YORK, priority 2019, published 2022)
